From patent EP0113998A2, “Composition and treatment for herpes simplex viral infections” (priority 1982, dated 1984)
At least one structure is not confirmed: it was looked up by name or label, or the drawing left a doubt.

What was measured:
[1] = test system: herpes simplex infections; assay type: in vivo, Human; conditions: summary of findings of Example 2
Procedure: A clinical study was performed in a. classical double blind format with numbered vials containing either 1% sodium deoxycholic acid (DOC)in an aqueous solution of 30% ethanol and 5% neopurcellin (a mixture of inert medium chain fatty acids). The placebo was exactly the same, except that it lacked the sodium deoxycholic acid.

[2] = test system: HSV-2; experiment: In vitro inactivation of virus, lytic activity assayed in Vero cells; assay type: cell-based; conditions: undiluted HSV-2 (10^8 plaque forming units per millilitre) incubated with 5% (w/v) deoxycholic acid in buffered normal saline, 37 °C, 20 minutes, then dialyzed; controls lysed through 10^6 dilutions
[3] = test system: HSV-1; experiment: as above; assay type: cell-based; conditions: undiluted HSV-1 (10^8 plaque forming units per millilitre) incubated with 5% (w/v) deoxycholic acid in buffered normal saline, 37 °C, 20 minutes, then dialyzed; controls lysed through 10^6 dilutions

Structure (SMILES)	reduction of significant signs of herpes simplex infections including erythema, edema, vesiculation, ulceration and pain [1]	lytic activity (ability to produce total cell lysis in confluent 30 mm dishes with Vero cells within 7 days of the infection) [2]	lytic activity (ability to produce total cell lysis in confluent 30 mm dishes with Vero cells within 7 days of the infection) [3]
C[C@H](CCC(=O)O)[C@H]1CC[C@H]2[C@@H]3CC[C@@H]4C[C@H](O)CC[C@]4(C)[C@H]3C[C@H](O)[C@]12C [DOC, sodium deoxycholic acid]	markedly reduce the significant signs of herpes simplex infections		
C[C@H](CCC(=O)O)[C@H]1CC[C@H]2[C@@H]3CC[C@@H]4C[C@H](O)CC[C@]4(C)[C@H]3C[C@H](O)[C@]12C [deoxycholic acid]		No lytic activity	No lytic activity
